According to the supplement of paper PMC12067093, “Discovery and optimisation of a covalent ligand for TRIM25 and its application to targeted protein ubiquitination” (Chemical Science, 2025):
The other results are listed elsewhere or left out.

Sequences of proteins named here, by UniProt entry; tags and fusion partners are left off. A change or cut given only in a name is not applied to a line headed by its entry.
UniProt O00584, whole entry, looked up: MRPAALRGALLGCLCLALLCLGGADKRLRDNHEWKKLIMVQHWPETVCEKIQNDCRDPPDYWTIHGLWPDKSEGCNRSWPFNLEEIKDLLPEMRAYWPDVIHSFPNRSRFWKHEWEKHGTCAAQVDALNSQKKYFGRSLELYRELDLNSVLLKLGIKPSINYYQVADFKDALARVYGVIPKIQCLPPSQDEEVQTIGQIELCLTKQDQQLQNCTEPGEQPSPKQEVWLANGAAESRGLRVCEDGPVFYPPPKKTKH
UniProt Q13129: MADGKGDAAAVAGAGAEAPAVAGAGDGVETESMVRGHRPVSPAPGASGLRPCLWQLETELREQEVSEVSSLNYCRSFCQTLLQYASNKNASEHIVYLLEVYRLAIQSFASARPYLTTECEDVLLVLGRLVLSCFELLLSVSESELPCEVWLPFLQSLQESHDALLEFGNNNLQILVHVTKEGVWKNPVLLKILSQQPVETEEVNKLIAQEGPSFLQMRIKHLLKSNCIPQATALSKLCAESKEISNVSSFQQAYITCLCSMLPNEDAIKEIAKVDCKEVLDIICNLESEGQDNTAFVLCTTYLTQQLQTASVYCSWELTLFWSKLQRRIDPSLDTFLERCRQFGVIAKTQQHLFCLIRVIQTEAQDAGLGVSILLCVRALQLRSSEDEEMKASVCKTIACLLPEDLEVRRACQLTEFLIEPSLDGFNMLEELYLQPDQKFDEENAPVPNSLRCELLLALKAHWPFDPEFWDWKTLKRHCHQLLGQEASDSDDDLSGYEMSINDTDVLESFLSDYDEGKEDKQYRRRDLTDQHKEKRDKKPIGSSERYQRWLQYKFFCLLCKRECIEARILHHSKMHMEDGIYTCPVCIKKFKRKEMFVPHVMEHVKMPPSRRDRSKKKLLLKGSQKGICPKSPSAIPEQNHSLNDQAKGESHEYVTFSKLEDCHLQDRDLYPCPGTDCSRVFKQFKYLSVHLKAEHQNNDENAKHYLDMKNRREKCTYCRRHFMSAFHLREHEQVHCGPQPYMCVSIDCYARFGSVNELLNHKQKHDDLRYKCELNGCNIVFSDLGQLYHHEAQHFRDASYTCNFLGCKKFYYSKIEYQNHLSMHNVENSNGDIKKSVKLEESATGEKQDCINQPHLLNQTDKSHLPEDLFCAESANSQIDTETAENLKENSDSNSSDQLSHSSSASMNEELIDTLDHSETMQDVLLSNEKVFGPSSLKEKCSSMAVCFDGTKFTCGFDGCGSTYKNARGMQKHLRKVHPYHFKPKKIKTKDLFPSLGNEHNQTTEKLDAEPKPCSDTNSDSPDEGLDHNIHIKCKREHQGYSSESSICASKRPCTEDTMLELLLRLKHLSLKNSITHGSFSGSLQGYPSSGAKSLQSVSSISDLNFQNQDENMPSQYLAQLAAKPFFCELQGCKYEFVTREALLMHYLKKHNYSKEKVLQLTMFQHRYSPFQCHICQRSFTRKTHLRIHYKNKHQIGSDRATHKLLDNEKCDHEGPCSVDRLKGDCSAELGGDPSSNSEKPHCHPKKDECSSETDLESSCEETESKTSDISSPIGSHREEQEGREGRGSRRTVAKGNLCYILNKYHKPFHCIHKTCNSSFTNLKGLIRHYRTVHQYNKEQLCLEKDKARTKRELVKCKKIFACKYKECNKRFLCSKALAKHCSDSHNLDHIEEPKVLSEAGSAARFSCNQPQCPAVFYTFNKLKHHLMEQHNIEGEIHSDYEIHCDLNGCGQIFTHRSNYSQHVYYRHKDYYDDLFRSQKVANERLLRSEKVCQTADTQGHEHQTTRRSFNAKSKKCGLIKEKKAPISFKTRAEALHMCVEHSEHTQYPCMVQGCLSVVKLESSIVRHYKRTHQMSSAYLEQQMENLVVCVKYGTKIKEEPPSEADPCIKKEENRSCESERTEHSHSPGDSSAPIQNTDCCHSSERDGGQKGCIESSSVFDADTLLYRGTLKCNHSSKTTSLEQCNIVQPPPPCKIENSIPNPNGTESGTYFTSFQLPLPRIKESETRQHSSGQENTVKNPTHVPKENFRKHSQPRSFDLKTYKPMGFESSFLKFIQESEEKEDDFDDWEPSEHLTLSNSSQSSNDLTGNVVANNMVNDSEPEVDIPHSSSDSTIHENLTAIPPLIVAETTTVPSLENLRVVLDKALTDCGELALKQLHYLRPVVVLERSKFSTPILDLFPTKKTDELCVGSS
UniProt Q8WZ73: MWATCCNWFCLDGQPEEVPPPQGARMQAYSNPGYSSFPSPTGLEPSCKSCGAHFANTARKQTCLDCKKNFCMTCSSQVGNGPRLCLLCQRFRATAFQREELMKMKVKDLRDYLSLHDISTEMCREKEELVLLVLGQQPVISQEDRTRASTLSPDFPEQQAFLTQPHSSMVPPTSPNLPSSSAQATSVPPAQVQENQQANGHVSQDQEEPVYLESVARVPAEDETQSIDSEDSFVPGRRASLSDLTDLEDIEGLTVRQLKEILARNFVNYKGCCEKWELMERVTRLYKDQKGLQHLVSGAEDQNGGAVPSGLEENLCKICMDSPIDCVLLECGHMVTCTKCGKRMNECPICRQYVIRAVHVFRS
UniProt O43353, whole entry, looked up: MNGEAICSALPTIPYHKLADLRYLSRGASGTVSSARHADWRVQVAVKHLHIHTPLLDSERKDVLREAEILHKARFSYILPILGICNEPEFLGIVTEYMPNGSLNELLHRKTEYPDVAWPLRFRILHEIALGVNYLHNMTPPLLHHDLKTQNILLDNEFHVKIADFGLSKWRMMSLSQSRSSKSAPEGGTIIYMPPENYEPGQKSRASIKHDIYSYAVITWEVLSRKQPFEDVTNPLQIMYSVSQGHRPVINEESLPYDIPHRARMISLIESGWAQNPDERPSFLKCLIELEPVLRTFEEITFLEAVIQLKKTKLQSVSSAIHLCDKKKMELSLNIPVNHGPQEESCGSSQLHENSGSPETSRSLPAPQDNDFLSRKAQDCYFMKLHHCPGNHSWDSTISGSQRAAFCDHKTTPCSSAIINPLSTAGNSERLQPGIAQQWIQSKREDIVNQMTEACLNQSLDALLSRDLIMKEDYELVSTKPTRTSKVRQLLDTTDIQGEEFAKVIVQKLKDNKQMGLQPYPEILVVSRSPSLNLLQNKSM
UniProt Q4ADV7: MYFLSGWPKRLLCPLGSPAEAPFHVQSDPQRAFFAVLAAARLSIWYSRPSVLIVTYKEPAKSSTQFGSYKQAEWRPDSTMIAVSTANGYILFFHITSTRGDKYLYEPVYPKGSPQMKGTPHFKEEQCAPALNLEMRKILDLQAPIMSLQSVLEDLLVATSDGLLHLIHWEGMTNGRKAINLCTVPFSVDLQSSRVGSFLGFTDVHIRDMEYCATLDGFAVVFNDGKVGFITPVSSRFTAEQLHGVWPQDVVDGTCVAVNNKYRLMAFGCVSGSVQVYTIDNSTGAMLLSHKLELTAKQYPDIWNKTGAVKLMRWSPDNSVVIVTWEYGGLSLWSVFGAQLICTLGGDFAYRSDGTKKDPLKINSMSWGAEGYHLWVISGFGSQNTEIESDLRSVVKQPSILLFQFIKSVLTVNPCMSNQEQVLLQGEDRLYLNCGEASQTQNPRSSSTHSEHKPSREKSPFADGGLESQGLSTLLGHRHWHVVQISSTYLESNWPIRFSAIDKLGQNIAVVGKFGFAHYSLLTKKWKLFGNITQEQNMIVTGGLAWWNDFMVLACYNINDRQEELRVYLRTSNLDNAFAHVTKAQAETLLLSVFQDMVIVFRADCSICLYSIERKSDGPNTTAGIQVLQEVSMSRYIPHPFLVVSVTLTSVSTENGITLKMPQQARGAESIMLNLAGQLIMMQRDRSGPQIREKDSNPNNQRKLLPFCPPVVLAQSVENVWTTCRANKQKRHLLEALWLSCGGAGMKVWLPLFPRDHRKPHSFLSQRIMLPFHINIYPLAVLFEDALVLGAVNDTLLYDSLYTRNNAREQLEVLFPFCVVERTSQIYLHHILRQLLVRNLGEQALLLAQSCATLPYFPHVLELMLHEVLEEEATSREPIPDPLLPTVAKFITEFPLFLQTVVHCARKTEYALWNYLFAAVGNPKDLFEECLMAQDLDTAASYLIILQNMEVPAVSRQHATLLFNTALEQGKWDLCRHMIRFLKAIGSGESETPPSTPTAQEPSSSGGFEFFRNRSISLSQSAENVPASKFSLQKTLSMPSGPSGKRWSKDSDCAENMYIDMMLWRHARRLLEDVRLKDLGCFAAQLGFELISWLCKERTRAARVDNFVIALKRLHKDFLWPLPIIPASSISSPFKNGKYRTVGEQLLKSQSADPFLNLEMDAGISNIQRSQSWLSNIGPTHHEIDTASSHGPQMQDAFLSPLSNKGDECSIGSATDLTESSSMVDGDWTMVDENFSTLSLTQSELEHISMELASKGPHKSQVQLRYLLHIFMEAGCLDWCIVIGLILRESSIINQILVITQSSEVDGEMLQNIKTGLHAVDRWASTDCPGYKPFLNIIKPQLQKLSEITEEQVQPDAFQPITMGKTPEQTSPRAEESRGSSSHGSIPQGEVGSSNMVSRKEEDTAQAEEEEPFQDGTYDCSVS
UniProt P46063: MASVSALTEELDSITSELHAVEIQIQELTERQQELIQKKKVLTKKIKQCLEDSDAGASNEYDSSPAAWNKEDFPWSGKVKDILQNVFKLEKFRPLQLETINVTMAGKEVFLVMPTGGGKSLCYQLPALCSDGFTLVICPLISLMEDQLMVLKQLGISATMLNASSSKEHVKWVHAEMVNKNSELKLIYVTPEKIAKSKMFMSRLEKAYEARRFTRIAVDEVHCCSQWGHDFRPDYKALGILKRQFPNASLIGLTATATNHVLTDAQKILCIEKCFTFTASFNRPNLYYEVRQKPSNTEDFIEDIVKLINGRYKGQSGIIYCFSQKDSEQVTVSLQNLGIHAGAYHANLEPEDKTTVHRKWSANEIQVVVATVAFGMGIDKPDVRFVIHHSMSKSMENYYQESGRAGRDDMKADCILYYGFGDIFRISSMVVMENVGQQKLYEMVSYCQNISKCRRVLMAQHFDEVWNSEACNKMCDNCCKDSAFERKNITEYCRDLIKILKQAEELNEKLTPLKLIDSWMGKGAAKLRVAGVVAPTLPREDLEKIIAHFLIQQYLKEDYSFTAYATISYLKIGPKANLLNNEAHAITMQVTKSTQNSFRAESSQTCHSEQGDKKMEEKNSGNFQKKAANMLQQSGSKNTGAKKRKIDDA
UniProt O43665: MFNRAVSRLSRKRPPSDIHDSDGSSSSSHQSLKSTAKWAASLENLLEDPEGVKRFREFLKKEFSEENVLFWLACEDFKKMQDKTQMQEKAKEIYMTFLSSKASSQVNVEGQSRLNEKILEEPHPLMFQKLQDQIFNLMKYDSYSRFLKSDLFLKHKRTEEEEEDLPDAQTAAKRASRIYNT
UniProt Q9H6W3: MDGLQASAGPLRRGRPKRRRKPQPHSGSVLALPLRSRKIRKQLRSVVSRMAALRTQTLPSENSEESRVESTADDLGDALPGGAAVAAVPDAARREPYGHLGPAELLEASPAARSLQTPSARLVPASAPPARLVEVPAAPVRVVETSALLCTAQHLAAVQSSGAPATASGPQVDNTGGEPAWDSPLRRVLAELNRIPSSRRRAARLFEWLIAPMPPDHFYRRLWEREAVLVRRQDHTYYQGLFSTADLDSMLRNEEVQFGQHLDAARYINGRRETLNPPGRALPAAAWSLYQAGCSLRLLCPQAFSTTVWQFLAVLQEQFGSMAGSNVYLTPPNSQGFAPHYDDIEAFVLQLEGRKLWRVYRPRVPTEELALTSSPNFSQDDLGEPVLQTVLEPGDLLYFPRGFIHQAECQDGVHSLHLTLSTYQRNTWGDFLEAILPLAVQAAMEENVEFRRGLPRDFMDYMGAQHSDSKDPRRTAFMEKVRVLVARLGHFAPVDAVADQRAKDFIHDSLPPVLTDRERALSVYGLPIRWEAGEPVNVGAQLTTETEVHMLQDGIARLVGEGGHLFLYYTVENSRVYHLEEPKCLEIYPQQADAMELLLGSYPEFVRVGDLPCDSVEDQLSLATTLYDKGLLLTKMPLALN
UniProt Q8IXI2: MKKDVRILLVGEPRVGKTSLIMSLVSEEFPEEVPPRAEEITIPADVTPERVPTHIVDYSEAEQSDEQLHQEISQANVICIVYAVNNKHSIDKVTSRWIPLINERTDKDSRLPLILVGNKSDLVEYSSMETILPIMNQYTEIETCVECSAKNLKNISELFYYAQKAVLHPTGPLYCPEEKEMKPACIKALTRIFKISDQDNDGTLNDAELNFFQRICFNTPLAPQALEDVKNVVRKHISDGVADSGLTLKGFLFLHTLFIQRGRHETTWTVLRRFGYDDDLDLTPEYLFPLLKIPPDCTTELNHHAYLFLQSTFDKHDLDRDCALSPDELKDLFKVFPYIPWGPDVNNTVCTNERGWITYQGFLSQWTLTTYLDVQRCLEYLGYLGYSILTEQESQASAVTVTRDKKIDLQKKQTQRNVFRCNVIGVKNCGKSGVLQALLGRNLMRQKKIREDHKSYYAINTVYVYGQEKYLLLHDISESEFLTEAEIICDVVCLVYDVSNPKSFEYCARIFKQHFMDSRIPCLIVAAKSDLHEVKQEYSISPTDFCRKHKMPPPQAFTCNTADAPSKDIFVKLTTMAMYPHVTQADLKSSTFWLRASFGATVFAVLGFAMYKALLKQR

Compound: CC1Cc2ccccc2N1C(=O)C1CCCN(C1)C(=O)CCl (mixture of isomers) [TRIM25 ligand 11 (diastereomer mixture)]
Assay: probe-labelled cysteine peptide fold change vs DMSO (competition) (log2 fold change); higher = less target engagement (more negative = stronger competition)
Settings: THP-1, incubation time: 4 h
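Also: competitive chemoproteomic profiling in live THP-1 cells with an iodoacetamide desthiobiotin (IA-DTB) probe, comparing probe-labelled peptide intensities in compound-treated cells against DMSO-treated controls.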

## RFC5_P40937_238_VTEETVYTCTGHPLK (UniProt P40937)
10 µM
  probe-labelled cysteine peptide fold change: 0.144
50 µM
  probe-labelled cysteine peptide fold change: 0.0383

## RFC3_P40938_230+233_ALLMCEACR (UniProt P40938)
10 µM
  probe-labelled cysteine peptide fold change: 0.11
50 µM
  probe-labelled cysteine peptide fold change: 0.0343

## RICTOR_Q6R327_893+906_TGCHLLEVQNIITELCR (UniProt Q6R327)
10 µM
  probe-labelled cysteine peptide fold change: -0.0205
50 µM
  probe-labelled cysteine peptide fold change: -0.296

## RNASET2_O00584_55_IQNDCR (UniProt O00584)
10 µM
  probe-labelled cysteine peptide fold change: -0.0179
50 µM
  probe-labelled cysteine peptide fold change: -0.093

## RFC3_P40938_193+200_VPAPSIEDICHVLSTVCK (UniProt P40938)
10 µM
  probe-labelled cysteine peptide fold change: 0.149
50 µM
  probe-labelled cysteine peptide fold change: 0.0296

## RLF_Q13129_1212_CDHEGPCSVDR (UniProt Q13129)
10 µM
  probe-labelled cysteine peptide fold change: 0.08
50 µM
  probe-labelled cysteine peptide fold change: 0.0246

## RFFL_Q8WZ73_337_ICMDSPIDCVLLECGHMVTCTK (UniProt Q8WZ73)
10 µM
  probe-labelled cysteine peptide fold change: 0.0419
50 µM
  probe-labelled cysteine peptide fold change: 0.00122

## RIPK2_O43353_455_REDIVNQMTEACLNQSLDALLSR (UniProt O43353)
10 µM
  probe-labelled cysteine peptide fold change: -0.181
50 µM
  probe-labelled cysteine peptide fold change: -0.0668

## RIC1_Q4ADV7_127_EEQCAPALNLEMR (UniProt Q4ADV7)
10 µM
  probe-labelled cysteine peptide fold change: -0.0426
50 µM
  probe-labelled cysteine peptide fold change: -0.0612

## RLF_Q13129_663_LEDCHLQDRDLYPCPGTDCSR (UniProt Q13129)
10 µM
  probe-labelled cysteine peptide fold change: 0.218
50 µM
  probe-labelled cysteine peptide fold change: 0.0103

## RIOK3_O14730_171_HDEVVCGR (UniProt O14730)
10 µM
  probe-labelled cysteine peptide fold change: -0.149
50 µM
  probe-labelled cysteine peptide fold change: -0.139

## RNASET2_O00584_121_HGTCAAQVDALNSQKK (UniProt O00584)
10 µM
  probe-labelled cysteine peptide fold change: -0.141
50 µM
  probe-labelled cysteine peptide fold change: -0.394

## RHOT2_Q8IXI1_389_SCLGHLGYLGYPTLCEQDQAHAITVTR (UniProt Q8IXI1)
10 µM
  probe-labelled cysteine peptide fold change: 0.078
50 µM
  probe-labelled cysteine peptide fold change: -0.0993

## RECQL_P46063_414_DDMKADCILYYGFGDIFR (UniProt P46063)
10 µM
  probe-labelled cysteine peptide fold change: -0.336
50 µM
  probe-labelled cysteine peptide fold change: -0.367

## RGP1_Q92546_314_TSFSLPIPLSSTPGFCTAIVSLK (UniProt Q92546)
10 µM
  probe-labelled cysteine peptide fold change: -0.0704
50 µM
  probe-labelled cysteine peptide fold change: 0.306

## REPIN1_Q9BWE0_433_VHSGERPFACEECGR (UniProt Q9BWE0)
10 µM
  probe-labelled cysteine peptide fold change: -0.0235
50 µM
  probe-labelled cysteine peptide fold change: 0.0489

## RGS10_O43665_66_EFSEENVLFWLACEDFKK (UniProt O43665)
10 µM
  probe-labelled cysteine peptide fold change: -0.0879
50 µM
  probe-labelled cysteine peptide fold change: -0.0221

## RIOX1_Q9H6W3_584_CLEIYPQQADAMELLLGSYPEFVR (UniProt Q9H6W3)
10 µM
  probe-labelled cysteine peptide fold change: 0.0963
50 µM
  probe-labelled cysteine peptide fold change: 0.198

## RHOT1_Q8IXI2_522_IPCLIVAAK (UniProt Q8IXI2)
10 µM
  probe-labelled cysteine peptide fold change: 0.112
50 µM
  probe-labelled cysteine peptide fold change: 0.189

## RMDN3_Q96TC7_321_GDESADCHLWYAVLCGQLAEHESIQR (UniProt Q96TC7)
10 µM
  probe-labelled cysteine peptide fold change: 0.145
50 µM
  probe-labelled cysteine peptide fold change: -0.116

## RDH13_Q8NBN7_30_DYVTGGACPSK (UniProt Q8NBN7)
10 µM
  probe-labelled cysteine peptide fold change: 0.0256
50 µM
  probe-labelled cysteine peptide fold change: -0.029

## RIC1_Q4ADV7_818_EQLEVLFPFCVVER (UniProt Q4ADV7)
10 µM
  probe-labelled cysteine peptide fold change: 0.115
50 µM
  probe-labelled cysteine peptide fold change: 0.0689

## RIC1_Q4ADV7_904_FITEFPLFLQTVVHCAR (UniProt Q4ADV7)
10 µM
  probe-labelled cysteine peptide fold change: 0.233
50 µM
  probe-labelled cysteine peptide fold change: -0.0707

## RGN_Q15493_218_LWVACYNGGR (UniProt Q15493)
10 µM
  probe-labelled cysteine peptide fold change: 0.478
50 µM
  probe-labelled cysteine peptide fold change: 0.327

## RNASET2_O00584_241_VCEDGPVFYPPPK (UniProt O00584)
10 µM
  probe-labelled cysteine peptide fold change: -0.151
50 µM
  probe-labelled cysteine peptide fold change: -0.195

## RHOT1_Q8IXI2_216_ICFNTPLAPQALEDVK (UniProt Q8IXI2)
10 µM
  probe-labelled cysteine peptide fold change: 0.44
50 µM
  probe-labelled cysteine peptide fold change: 0.146

## RFC1_P35251_916_AADSICDGDLVDSQIR (UniProt P35251)
10 µM
  probe-labelled cysteine peptide fold change: 0.228
50 µM
  probe-labelled cysteine peptide fold change: 0.146

## RHOT2_Q8IXI1_216_SCFGHPLAPQALEDVK (UniProt Q8IXI1)
10 µM
  probe-labelled cysteine peptide fold change: 0.0861
50 µM
  probe-labelled cysteine peptide fold change: -0.218

## REL_Q04864-2_304_LCQDHVNFPERPRPGLLGSIGEGR (UniProt Q04864)
10 µM
  probe-labelled cysteine peptide fold change: 0.119
50 µM
  probe-labelled cysteine peptide fold change: -0.142

## RNASEH1_O60930_191_AEIHAACK (UniProt O60930)
10 µM
  probe-labelled cysteine peptide fold change: 0.0147
50 µM
  probe-labelled cysteine peptide fold change: -0.0199

## RDH11_Q8TC12_133_HLHVLINNAGVMMCPYSK (UniProt Q8TC12)
10 µM
  probe-labelled cysteine peptide fold change: -0.183
50 µM
  probe-labelled cysteine peptide fold change: -0.173

## RECQL4_O94761_636_MGVHCFLGLTATATR (UniProt O94761)
10 µM
  probe-labelled cysteine peptide fold change: -0.0439
50 µM
  probe-labelled cysteine peptide fold change: -0.0919

## RGS10_O43665_66_EFSEENVLFWLACEDFK (UniProt O43665)
10 µM
  probe-labelled cysteine peptide fold change: 0.13
50 µM
  probe-labelled cysteine peptide fold change: 0.0517

## RNASEH2A_O75792_29_KEPCVLGVDEAGR (UniProt O75792)
10 µM
  probe-labelled cysteine peptide fold change: 0.00117
50 µM
  probe-labelled cysteine peptide fold change: 0.0161

## RLF_Q13129_1317_TCNSSFTNLK (UniProt Q13129)
10 µM
  probe-labelled cysteine peptide fold change: -0.0044
50 µM
  probe-labelled cysteine peptide fold change: 0.125

## RIPK2_O43353_286_CLIELEPVLR (UniProt O43353)
10 µM
  probe-labelled cysteine peptide fold change: 0.0249
50 µM
  probe-labelled cysteine peptide fold change: 0.128

## RIC8A_Q9NPQ8_120_CLCNLVLSSPVAQMLAAEAR (UniProt Q9NPQ8)
10 µM
  probe-labelled cysteine peptide fold change: -0.125
50 µM
  probe-labelled cysteine peptide fold change: -0.0602

## RHOT2_Q8IXI1_297_RFGYSDALELTADYLSPLIHVPPGCSTELNHLGYQFVQR (UniProt Q8IXI1)
10 µM
  probe-labelled cysteine peptide fold change: 0.156
50 µM
  probe-labelled cysteine peptide fold change: 0.358

## RECQL4_O94761_749_TTAEAYHAGMCSR (UniProt O94761)
10 µM
  probe-labelled cysteine peptide fold change: -0.0321
50 µM
  probe-labelled cysteine peptide fold change: -0.0504

## RECQL_P46063_223+224_IAVDEVHCCSQWGHDFRPDYK (UniProt P46063)
10 µM
  probe-labelled cysteine peptide fold change: 0.0483
50 µM
  probe-labelled cysteine peptide fold change: 0.0373

## REPS1_Q96D71_56_AAQLPNDVVLQIMELCGATR (UniProt Q96D71)
10 µM
  probe-labelled cysteine peptide fold change: 0.0646
50 µM
  probe-labelled cysteine peptide fold change: 0.361

## RFC3_P40938_193_VPAPSIEDICHVLSTVCK (UniProt P40938)
10 µM
  probe-labelled cysteine peptide fold change: 0.102
50 µM
  probe-labelled cysteine peptide fold change: 0.216

## RNF138_Q8WVD3_192_LLDHCNSNHLFQIVPVTCPICVSLPWGDPSQITR (UniProt Q8WVD3)
10 µM
  probe-labelled cysteine peptide fold change: -0.215
50 µM
  probe-labelled cysteine peptide fold change: -0.339

## RLF_Q13129_948_CSSMAVCFDGTK (UniProt Q13129)
10 µM
  probe-labelled cysteine peptide fold change: -0.158
50 µM
  probe-labelled cysteine peptide fold change: -0.331

## RFC3_P40938_233_ALLMCEACR (UniProt P40938)
10 µM
  probe-labelled cysteine peptide fold change: -0.032
50 µM
  probe-labelled cysteine peptide fold change: 0.259

## RFFL_Q8WZ73_123_DLRDYLSLHDISTEMCR (UniProt Q8WZ73)
10 µM
  probe-labelled cysteine peptide fold change: -0.0342
50 µM
  probe-labelled cysteine peptide fold change: -0.0655

## RING1_Q06587_51_SLHSELMCPICLDMLK (UniProt Q06587)
10 µM
  probe-labelled cysteine peptide fold change: -0.00589
50 µM
  probe-labelled cysteine peptide fold change: -0.233

## RFXANK_O14593_205_CVEALLAR (UniProt O14593)
10 µM
  probe-labelled cysteine peptide fold change: 0.0647
50 µM
  probe-labelled cysteine peptide fold change: 0.0947

## RLF_Q13129_749_EHEQVHCGPQPYMCVSIDCYAR (UniProt Q13129)
10 µM
  probe-labelled cysteine peptide fold change: -0.161
50 µM
  probe-labelled cysteine peptide fold change: 0.182

## RIOX1_Q9H6W3_294_ALPAAAWSLYQAGCSLR (UniProt Q9H6W3)
10 µM
  probe-labelled cysteine peptide fold change: 0.132
50 µM
  probe-labelled cysteine peptide fold change: 0.139

## RFC1_P35251_607_TIIGQQGDQSCANK (UniProt P35251)
10 µM
  probe-labelled cysteine peptide fold change: -0.0377
50 µM
  probe-labelled cysteine peptide fold change: -0.103

## RNF126_Q9BV68_13_YFCHCCSVEIVPR (UniProt Q9BV68)
10 µM
  probe-labelled cysteine peptide fold change: 0.17
50 µM
  probe-labelled cysteine peptide fold change: 0.0535

## RIPOR1_Q6ZS17_945_VLEAVCEFSR (UniProt Q6ZS17)
10 µM
  probe-labelled cysteine peptide fold change: 0.0142
50 µM
  probe-labelled cysteine peptide fold change: 0.234

## REL_Q04864_208_GGDEIFLLCDK (UniProt Q04864)
10 µM
  probe-labelled cysteine peptide fold change: -0.0868
50 µM
  probe-labelled cysteine peptide fold change: 0.0839

## RNF113A_O15541_285_HYFCESCALQHFR (UniProt O15541)
10 µM
  probe-labelled cysteine peptide fold change: 0.00474
50 µM
  probe-labelled cysteine peptide fold change: -0.0166

## RHOG_P84095_105_WHPEVCHHCPDVPILLVGTK (UniProt P84095)
10 µM
  probe-labelled cysteine peptide fold change: 0.105
50 µM
  probe-labelled cysteine peptide fold change: 0.0932

## RFC3_P40938_11_YRPCSLGR (UniProt P40938)
10 µM
  probe-labelled cysteine peptide fold change: -0.00259
50 µM
  probe-labelled cysteine peptide fold change: 0.062

## RINL_Q6ZS11_350_KDEDPGPALETAVCQAVLAPLKPALWTR (UniProt Q6ZS11)
10 µM
  probe-labelled cysteine peptide fold change: 0.044
50 µM
  probe-labelled cysteine peptide fold change: -0.397
